According to the supplement of paper PMC6411743:
± gives the standard deviation of the averaged measurements. The list shows a part of the results, in another mix than the full data. Small differences around the control level are noise.

Protein sequences, listed by entry. Tags and fused reporters are not part of them. Lines headed by an entry give the natural chain unless they say otherwise; changes in a name come on top.
UniProt O95297: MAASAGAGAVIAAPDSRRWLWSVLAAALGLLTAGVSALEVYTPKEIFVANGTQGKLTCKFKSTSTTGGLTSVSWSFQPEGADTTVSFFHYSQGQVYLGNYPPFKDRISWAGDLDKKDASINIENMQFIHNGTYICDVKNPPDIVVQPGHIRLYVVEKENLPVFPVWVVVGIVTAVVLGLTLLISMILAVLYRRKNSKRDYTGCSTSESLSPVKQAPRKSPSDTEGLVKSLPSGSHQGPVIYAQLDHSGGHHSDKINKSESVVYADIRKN
UniProt O95155, whole entry: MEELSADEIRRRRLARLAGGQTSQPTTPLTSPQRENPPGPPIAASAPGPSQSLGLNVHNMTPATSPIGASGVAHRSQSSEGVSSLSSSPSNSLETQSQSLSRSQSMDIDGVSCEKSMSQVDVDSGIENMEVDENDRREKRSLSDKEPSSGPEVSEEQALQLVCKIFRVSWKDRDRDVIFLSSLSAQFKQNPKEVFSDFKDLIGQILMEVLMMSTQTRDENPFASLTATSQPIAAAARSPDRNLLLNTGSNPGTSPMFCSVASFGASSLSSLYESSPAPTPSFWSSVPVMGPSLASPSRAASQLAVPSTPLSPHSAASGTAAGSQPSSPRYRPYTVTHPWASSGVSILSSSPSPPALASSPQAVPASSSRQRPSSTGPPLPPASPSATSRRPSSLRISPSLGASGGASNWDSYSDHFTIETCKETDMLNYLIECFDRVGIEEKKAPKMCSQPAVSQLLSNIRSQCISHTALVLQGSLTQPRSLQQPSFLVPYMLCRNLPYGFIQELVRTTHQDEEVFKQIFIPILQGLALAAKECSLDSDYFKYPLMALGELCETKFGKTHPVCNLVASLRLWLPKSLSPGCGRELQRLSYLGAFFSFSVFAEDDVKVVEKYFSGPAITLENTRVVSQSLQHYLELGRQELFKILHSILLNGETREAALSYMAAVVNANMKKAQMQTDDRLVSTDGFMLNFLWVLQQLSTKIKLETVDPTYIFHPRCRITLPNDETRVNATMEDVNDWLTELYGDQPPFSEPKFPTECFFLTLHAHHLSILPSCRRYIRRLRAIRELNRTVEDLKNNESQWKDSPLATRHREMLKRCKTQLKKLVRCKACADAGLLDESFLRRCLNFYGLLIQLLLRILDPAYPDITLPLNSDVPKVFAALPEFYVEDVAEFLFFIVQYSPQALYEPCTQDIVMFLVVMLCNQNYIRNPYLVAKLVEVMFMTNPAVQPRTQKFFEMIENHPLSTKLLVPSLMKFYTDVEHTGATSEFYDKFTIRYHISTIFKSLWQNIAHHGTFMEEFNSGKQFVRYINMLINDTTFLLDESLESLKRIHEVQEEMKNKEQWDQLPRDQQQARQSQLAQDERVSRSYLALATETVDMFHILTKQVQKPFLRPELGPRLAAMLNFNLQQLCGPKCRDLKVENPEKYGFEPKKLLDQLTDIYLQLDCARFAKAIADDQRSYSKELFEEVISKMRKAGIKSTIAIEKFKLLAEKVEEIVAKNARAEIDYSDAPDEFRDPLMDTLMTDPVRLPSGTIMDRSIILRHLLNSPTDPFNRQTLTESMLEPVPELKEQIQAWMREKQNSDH
UniProt O75529: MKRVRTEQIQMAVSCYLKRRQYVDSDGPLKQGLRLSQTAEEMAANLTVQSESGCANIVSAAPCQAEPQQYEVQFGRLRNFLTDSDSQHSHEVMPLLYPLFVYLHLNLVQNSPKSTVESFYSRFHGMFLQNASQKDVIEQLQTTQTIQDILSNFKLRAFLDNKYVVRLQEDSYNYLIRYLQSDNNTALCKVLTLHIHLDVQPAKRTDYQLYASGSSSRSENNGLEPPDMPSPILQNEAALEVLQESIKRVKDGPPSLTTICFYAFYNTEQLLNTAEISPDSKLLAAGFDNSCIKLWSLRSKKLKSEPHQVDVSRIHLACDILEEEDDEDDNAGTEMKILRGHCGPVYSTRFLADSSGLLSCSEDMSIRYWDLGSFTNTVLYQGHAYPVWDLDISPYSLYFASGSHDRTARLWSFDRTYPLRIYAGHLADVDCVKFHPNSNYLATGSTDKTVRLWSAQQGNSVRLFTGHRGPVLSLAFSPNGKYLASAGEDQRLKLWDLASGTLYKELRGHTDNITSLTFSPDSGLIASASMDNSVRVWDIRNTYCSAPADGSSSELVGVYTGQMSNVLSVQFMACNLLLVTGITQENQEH
UniProt O75486: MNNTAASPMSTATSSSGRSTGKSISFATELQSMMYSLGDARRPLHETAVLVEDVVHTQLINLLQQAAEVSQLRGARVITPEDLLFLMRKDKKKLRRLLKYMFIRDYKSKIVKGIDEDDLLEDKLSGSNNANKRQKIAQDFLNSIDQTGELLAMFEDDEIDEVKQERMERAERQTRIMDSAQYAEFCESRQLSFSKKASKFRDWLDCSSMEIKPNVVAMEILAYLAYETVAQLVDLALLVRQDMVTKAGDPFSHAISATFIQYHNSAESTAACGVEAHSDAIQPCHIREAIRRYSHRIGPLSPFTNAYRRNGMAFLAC
UniProt O94782: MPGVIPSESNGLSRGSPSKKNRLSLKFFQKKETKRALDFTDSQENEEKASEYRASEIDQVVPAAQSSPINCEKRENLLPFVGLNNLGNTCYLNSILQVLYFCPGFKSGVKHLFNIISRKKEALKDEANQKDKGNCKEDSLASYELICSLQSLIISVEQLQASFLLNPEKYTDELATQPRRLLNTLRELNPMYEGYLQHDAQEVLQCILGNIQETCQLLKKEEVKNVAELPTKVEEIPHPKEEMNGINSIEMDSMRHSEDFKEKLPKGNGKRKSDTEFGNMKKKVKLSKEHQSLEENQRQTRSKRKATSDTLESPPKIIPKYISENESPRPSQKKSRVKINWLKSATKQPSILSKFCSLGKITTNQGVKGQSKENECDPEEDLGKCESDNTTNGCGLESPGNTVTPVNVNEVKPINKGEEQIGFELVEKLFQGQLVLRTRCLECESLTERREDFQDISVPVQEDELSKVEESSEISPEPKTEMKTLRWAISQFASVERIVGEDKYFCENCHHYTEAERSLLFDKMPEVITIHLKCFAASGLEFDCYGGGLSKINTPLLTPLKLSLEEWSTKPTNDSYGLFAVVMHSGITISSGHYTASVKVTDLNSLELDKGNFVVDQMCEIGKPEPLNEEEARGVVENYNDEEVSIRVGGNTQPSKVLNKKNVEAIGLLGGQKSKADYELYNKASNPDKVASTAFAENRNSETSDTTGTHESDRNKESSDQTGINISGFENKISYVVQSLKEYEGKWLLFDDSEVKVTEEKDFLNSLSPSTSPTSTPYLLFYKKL
UniProt O95394: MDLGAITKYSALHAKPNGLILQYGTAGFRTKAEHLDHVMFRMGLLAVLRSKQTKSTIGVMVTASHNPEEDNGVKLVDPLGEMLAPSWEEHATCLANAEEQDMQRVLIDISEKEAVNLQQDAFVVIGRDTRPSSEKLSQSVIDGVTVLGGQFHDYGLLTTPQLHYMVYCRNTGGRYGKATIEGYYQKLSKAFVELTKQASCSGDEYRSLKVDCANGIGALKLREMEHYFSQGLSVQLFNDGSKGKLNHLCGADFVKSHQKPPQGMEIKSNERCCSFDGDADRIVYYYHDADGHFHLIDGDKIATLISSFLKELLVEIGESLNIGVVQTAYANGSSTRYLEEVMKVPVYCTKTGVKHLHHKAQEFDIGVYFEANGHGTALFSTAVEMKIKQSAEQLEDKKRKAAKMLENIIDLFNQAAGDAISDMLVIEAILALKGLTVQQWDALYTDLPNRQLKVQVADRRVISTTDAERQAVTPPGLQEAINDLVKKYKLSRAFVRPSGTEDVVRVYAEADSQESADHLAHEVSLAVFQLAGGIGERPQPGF
UniProt O75530, whole entry, looked up: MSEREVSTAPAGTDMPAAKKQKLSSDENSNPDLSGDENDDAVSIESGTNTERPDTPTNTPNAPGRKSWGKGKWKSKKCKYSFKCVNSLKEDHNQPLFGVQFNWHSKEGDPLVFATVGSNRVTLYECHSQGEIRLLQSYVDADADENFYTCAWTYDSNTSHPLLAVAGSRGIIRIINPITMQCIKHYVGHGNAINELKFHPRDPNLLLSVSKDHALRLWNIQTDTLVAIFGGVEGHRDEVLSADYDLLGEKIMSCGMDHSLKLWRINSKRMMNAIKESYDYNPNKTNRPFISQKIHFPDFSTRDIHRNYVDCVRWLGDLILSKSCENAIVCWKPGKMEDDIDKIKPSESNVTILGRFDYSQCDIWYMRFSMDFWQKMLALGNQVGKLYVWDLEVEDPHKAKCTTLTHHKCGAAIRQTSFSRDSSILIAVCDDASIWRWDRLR
UniProt O95602, whole entry: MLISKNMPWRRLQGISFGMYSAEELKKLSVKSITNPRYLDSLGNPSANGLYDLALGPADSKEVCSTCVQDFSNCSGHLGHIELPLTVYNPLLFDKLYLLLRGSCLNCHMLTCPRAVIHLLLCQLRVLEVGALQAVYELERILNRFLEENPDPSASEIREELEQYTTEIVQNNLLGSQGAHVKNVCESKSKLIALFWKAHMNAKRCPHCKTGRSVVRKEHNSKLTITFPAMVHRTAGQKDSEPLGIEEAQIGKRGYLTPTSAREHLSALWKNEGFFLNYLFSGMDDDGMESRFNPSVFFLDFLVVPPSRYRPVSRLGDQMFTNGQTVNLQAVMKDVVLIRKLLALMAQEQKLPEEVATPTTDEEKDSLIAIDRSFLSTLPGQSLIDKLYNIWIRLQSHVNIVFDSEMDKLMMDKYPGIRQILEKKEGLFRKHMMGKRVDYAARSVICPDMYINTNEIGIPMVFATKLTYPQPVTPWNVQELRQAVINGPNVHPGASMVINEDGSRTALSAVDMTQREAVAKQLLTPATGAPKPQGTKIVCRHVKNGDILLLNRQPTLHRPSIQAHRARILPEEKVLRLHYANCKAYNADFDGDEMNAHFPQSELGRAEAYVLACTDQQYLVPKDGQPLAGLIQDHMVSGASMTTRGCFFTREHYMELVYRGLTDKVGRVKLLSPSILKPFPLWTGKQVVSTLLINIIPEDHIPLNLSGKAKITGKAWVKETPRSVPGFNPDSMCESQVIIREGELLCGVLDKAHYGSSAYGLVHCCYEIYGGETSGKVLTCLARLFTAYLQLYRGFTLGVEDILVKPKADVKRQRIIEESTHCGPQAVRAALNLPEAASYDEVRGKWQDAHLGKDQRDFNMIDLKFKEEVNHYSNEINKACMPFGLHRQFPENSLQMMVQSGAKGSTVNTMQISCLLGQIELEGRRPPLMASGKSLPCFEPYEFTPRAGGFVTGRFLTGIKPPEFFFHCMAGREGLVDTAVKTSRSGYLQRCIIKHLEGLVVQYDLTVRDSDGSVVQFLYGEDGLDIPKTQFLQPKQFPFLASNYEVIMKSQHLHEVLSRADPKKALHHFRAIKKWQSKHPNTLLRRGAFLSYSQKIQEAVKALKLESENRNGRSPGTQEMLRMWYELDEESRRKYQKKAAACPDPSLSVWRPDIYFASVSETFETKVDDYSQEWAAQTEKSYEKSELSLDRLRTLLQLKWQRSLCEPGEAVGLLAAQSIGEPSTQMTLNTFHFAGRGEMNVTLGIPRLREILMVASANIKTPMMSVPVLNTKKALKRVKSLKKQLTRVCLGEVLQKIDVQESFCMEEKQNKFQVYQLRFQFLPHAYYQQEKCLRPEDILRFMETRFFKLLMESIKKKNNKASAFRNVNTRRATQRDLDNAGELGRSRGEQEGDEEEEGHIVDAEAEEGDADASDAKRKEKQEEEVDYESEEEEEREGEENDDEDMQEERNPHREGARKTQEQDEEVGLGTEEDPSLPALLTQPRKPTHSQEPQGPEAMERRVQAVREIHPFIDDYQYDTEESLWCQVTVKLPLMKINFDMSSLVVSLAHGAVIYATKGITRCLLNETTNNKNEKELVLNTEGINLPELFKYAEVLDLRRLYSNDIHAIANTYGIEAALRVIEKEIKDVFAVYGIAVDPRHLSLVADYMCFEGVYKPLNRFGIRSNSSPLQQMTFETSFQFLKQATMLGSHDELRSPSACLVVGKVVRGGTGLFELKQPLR
UniProt O76031, whole entry: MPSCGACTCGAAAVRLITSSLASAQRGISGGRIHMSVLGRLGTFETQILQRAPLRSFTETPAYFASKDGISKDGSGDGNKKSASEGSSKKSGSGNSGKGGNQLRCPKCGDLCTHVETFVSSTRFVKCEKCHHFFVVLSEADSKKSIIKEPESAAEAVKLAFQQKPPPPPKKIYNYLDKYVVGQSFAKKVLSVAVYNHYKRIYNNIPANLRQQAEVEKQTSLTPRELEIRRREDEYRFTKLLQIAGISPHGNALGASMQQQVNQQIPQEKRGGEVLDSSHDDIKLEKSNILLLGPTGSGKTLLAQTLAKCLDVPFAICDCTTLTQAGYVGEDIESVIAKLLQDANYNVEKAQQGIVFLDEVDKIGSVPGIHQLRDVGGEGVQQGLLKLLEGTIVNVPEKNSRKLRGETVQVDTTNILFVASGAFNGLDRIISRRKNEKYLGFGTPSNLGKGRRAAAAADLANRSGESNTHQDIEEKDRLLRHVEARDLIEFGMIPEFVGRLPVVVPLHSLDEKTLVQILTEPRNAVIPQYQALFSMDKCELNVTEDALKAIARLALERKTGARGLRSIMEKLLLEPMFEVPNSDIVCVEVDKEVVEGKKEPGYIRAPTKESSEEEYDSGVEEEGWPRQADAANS

Compound: Nc1ncnc2c1ncn2[C@@H]1O[C@H](COP(=O)(O)OP(=O)(O)OP(=O)(O)O)[C@@H](O)[C@H]1O [adenosine triphosphate]
Assay: NP40-soluble protein abundance relative to vehicle (solubility fold change) (ratio); higher = more soluble protein in presence of ATP
How it was run: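 Jurkat crude lysate prepared with a Dounce homogeniser was treated at eight concentrations spanning 0.1 to 10 mM, 10 min at room temperature then 3 min at 37 °C. Solubilisation with 0.8% NP40 and benzonase and ultracentrifugation preceded TMT labelling of the supernatant for LC-MS/MS. Fold change against the detergent-processed vehicle was determined per replicate from vsn-normalised intensities, across three independent experiments.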

Target	NP40-soluble protein abundance (concentration: 0.1mM)	NP40-soluble protein abundance (concentration: 0.5mM)
ZNF217 (UniProt O75362)	0.968 ± 0.05	0.997 ± 0.094
MTA2 (UniProt O94776)	1.02 ± 0.029	1.06 ± 0.069
UniProt O75150 and related entries	1 ± 0.026	0.992 ± 0.03
MRPS14 (UniProt O60783)	0.875 ± 0.13	0.819 ± 0.12
PSMG1 (UniProt O95456)	0.991 ± 0.067	0.99 ± 0.018
UniProt O94901-9|E9PHI4 and related entries	1.03 ± 0.18	1.07 ± 0.13
SURF6 (UniProt O75683)	0.953 ± 0.081	0.933 ± 0.045
UniProt O95297 and related entries	0.889 ± 0.028	0.938 ± 0.029
UniProt O94927	0.988 ± 0.051	0.964 ± 0.044
ENDOD1 (UniProt O94919)	1.03 ± 0.027	0.996 ± 0.025
N4BP1 (UniProt O75113)	0.977 ± 0.011	0.97 ± 0.017
ARIH2 (UniProt O95376)	0.998 ± 0.076	0.996 ± 0.066
UniProt O94973 and related entries	1.01 ± 0.054	1.07 ± 0.055
UniProt O75071	1.01 ± 0.13	0.969 ± 0.11
DKC1 (UniProt O60832)	1.03 ± 0.059	1.01 ± 0.044
AGFG2 (UniProt O95081)	0.973 ± 0.066	1 ± 0.15
UniProt O95167 and related entries	0.747 ± 0.17	0.792 ± 0.24
UniProt O95453 and related entries	1.05 ± 0.037	1.03 ± 0.041
EDF1 (UniProt O60869)	0.95 ± 0.041	0.958 ± 0.058
UniProt O60711 and related entries	1.05 ± 0.071	1.05 ± 0.078

Rewritten in CSV form: entries from further up.
Target,NP40-soluble protein abundance (concentration: 0.1mM),NP40-soluble protein abundance (concentration: 0.5mM)
AGFG2 (UniProt O95081),0.973 ± 0.066,1 ± 0.15
UniProt O95167 and related entries,0.747 ± 0.17,0.792 ± 0.24
UniProt O95453 and related entries,1.05 ± 0.037,1.03 ± 0.041
EDF1 (UniProt O60869),0.95 ± 0.041,0.958 ± 0.058

(further entries)

Target	NP40-soluble protein abundance (concentration: 0.1mM)	NP40-soluble protein abundance (concentration: 0.5mM)
UniProt O95696 and related entries	0.995 ± 0.092	1.01 ± 0.11
ZC3H11A (UniProt O75152)	0.974 ± 0.029	0.907 ± 0.043
UniProt O75934	0.979 ± 0.089	0.939 ± 0.073
UniProt O75431 and related entries	0.989 ± 0.039	0.9804 ± 0.0042
UniProt O75396	0.974 ± 0.028	0.958 ± 0.051
UniProt O60763 and related entries	0.954 ± 0.02	0.988 ± 0.052
CTSV (UniProt O60911)	1.05 ± 0.035	1 ± 0.018
WDR1 (UniProt O75083)	1.03 ± 0.066	1.02 ± 0.065
UniProt O75330 and related entries	0.959 ± 0.015	0.941 ± 0.023
PGLS (UniProt O95336)	0.982 ± 0.057	0.938 ± 0.075
UniProt O95197 and related entries	0.924 ± 0.037	0.921 ± 0.038
DNAJC8 (UniProt O75937)	0.947 ± 0.094	0.919 ± 0.08
UniProt O75155 and related entries	0.944 ± 0.015	0.96 ± 0.038
UniProt O95155 and related entries	1.04 ± 0.07	1.04 ± 0.038
POP4 (UniProt O95707)	0.936 ± 0.05	0.967 ± 0.013
MAFK (UniProt O60675)	0.996 ± 0.098	1 ± 0.11
NMT2 (UniProt O60551)	1.02 ± 0.032	1.13 ± 0.03
MAN1A2 (UniProt O60476)	1.03 ± 0.058	0.997 ± 0.074
UniProt O75475 and related entries	1 ± 0.045	1.1 ± 0.061
UniProt O60508 and related entries	1.08 ± 0.065	1.05 ± 0.04

Target	NP40-soluble protein abundance (concentration: 0.1mM)	NP40-soluble protein abundance (concentration: 0.5mM)
UniProt O75928 and related entries	1.06 ± 0.083	0.966 ± 0.058
UniProt O95487 and related entries	1.06 ± 0.035	1.06 ± 0.024
UniProt O75845	1.09 ± 0.018	1.01 ± 0.044
STAM2 (UniProt O75886)	0.9742 ± 0.0077	0.955 ± 0.025
TAF5L (UniProt O75529)	1.05 ± 0.073	1.08 ± 0.053
UniProt O75164	1.1 ± 0.038	1.11 ± 0.085
ERAL1 (UniProt O75616)	1.1 ± 0.12	1.11 ± 0.18
UniProt O75486 and related entries	1.03 ± 0.12	1.12 ± 0.068
UniProt O75460	1.02 ± 0.045	1.02 ± 0.082
UniProt O75208 and related entries	0.872 ± 0.065	0.825 ± 0.096
UniProt O95429 and related entries	1.02 ± 0.14	1.08 ± 0.36
UniProt O75367 and related entries	0.9042 ± 0.0054	0.884 ± 0.02
USP1 (UniProt O94782)	0.999 ± 0.018	0.983 ± 0.065
UniProt O95394 and related entries	1.05 ± 0.056	1.04 ± 0.05
UniProt O75530	1.05 ± 0.054	1.145 ± 0.0061
UniProt O60825 and related entries	1.07 ± 0.083	1.02 ± 0.028
UniProt O75306 and related entries	1.05 ± 0.076	1.04 ± 0.029
UniProt O60488 and related entries	1.07 ± 0.093	1.1 ± 0.079
POLR1A (UniProt O95602)	1.08 ± 0.014	1.06 ± 0.018
CLPX (UniProt O76031)	1.02 ± 0.036	1.02 ± 0.031
